This is an account of results in ChEMBL document CHEMBL1144408, “Novel atypical antipsychotic agents: rational design, an efficient palladium-catalyzed route, and pharmacological studies” (J Med Chem, 2005).

SMILES strings stand for the structures.

Type in all cases: functional
In assay [1] the test system is Rattus norvegicus. The assay is described as follows: In vivo effective dose against catalepsy response was determined in rats.
Assay [2] concerns Rattus norvegicus. Description: In vivo effective dose against 5-MeO-DMT-induced head twitches in rats was determined.
In assay [3] the test system is Rattus norvegicus. Description: In vivo effective dose of compound against 5-MeO-DMT induced head twitches in rats.

As for `Cc1cc2c(s1)Nc1ccccc1N=C2N1CCN(C)CC1` [OLANZAPINE], the values for the ED50 in the assay with Rattus norvegicus [1], in the assay on Rattus norvegicus [2] and in the assay with Rattus norvegicus [3] were 21.2 µmol/kg, 4.65 µmol/kg and 1.45 mg/kg, respectively.
